This is one part of the list.

Chains of the proteins cited; added tags and fusions are not shown.
UniProt Q0JBA9, entry or part of it: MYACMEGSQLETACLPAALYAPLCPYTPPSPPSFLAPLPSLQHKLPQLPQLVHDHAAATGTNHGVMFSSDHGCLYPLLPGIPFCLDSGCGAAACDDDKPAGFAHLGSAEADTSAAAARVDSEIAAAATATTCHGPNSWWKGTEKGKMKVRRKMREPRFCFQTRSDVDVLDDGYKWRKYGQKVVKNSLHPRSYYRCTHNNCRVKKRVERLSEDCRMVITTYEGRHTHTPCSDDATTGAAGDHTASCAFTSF

For the assay, the target named is OsWRKY34 (Oryza sativa, UniProt Q0JBA9 1-250). Briefly: protein-binding microarray (RPBM); PBS, 2% BSA, 51.3 ng/ul salmon testes DNA, 50 uM zinc acetate, 200 nM TF, 25 C, 1 h; high values mean tight binding. Particulars: protein: recombinant; tags: N-terminal polyhistidine and DsRed monomer fusion (pET32a); label: CyDye5-dUTP incorporated in the synthesized complementary strand; 3' TTTTT single-stranded linker to array surface; dsDNA, one strand shown. Put shortly:
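Transcription factors were made in E. coli BL21-CodonPlus as N-terminal fusions to a polyhistidine tag and DsRed, then purified on Ni–NTA. After primer extension with Cy5-dUTP and blocking with 2% BSA, a custom Agilent array was exposed for 1 h at 25 °C to 200 nM protein in PBS, 2% BSA, salmon testes DNA and 50 µM zinc acetate. Washed arrays were scanned on an Axon 4000B, and the binding signal is per-feature fluorescence intensity in arbitrary units.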
For the sequence “GCGCCACCGCGTCTACTGCCGCCGCCGCCGCCGCGTCCACCGGAGTCACCTAGTGCAG”, the binding signal was 8480 fluorescence intensity (a.u.). With “GAATAAACCCTAACCTGGCCCTTATCATTATGCGTCGGAGCGGAGTCACCTAGTGCAG”, the binding signal is 8100 fluorescence intensity (a.u.).

Consider “AATCGTTTTGTTTGTTTGTTTTTTTATTGGCATTAGGGCCCGGAGTCACCTAGTGCAG”, for which the binding signal was 12000 fluorescence intensity (a.u.). With “AGTACCCTTGCTCGATCCCTACTGGTTGACTGACTTGTAACGGAGTCACCTAGTGCAG”, the binding signal was 10700 fluorescence intensity (a.u.). Regarding “GTGTTTGGTTGAGAGGCGAATGGGATGGGTTGGTCCCTGGCGGAGTCACCTAGTGCAG”, the binding signal is 8080 fluorescence intensity (a.u.). Take “TGTGCATGTCCACGTGTTATCGCTTTCCTCACAATTCATCCGGAGTCACCTAGTGCAG”: the binding signal was 14100 fluorescence intensity (a.u.).

Consider “GTTTGTCCCTTTTGACATATGAACTCTTCTCCATGATTTCCGGAGTCACCTAGTGCAG”, for which the binding signal is 8060 fluorescence intensity (a.u.). Under “GCTATAAGTAGCTCCAGCATCAACTCCTAGCTTCACAGCCCGGAGTCACCTAGTGCAG” stands 8030 fluorescence intensity (a.u.); under “CTCACATGTTGAACATCTCCCTGTACTTACTGACAAGTGACGGAGTCACCTAGTGCAG”, 8480 fluorescence intensity (a.u.).

As for “GGTTCTTGCCTCTTTCTTTGAGGACTCGCCCGCCCAACAGCGGAGTCACCTAGTGCAG”, the binding signal was 9980 fluorescence intensity (a.u.). Regarding “TTGGTTCGGTCGCTCCGTTCCTCCGGCTTCCGCCTTTCCTCGGAGTCACCTAGTGCAG”, the binding signal is 9410 fluorescence intensity (a.u.). For the sequence “TCTCATGGTCTTTCTCGATGGGTAGGATGCGTTCTTTATTCGGAGTCACCTAGTGCAG”, the binding signal was 8220 fluorescence intensity (a.u.). As for “TCTTCCGCCGCTACTGCCGCCACCGCCACCTCCGCCTCCACGGAGTCACCTAGTGCAG”, the binding signal was 10200 fluorescence intensity (a.u.). Regarding “AACATCGCACACTGCCCTTGCAATTCACAACTATTTATATCGGAGTCACCTAGTGCAG”, the binding signal is 8970 fluorescence intensity (a.u.). Turning to “GTCGTTCTGTCCGGTTTTCTGGTTGAGGGGTACGAATTAGCGGAGTCACCTAGTGCAG”, the binding signal is 9020 fluorescence intensity (a.u.). Turning to “TCCATGGTCTTCTTCCGTTCGCCCTCGCTTTCTTCCCGCACGGAGTCACCTAGTGCAG”, the binding signal was 12700 fluorescence intensity (a.u.). Under “ACCCAATTCTACTTACTGGCTACTAATCTGAATCAAATTTCGGAGTCACCTAGTGCAG” stands 9440 fluorescence intensity (a.u.); under “TCTCTCTCTCTCTCTCTCTCTGCTGCACTACTAGCTAGCTCGGAGTCACCTAGTGCAG”, 9910 fluorescence intensity (a.u.).

Regarding “GGAGAGGATGTAGGTTGAGTTTTTTTTTGGGACGGAGGGACGGAGTCACCTAGTGCAG”, the binding signal was 10800 fluorescence intensity (a.u.).

On to “TGCTGGTTCTGCTCCTTCGCTGTTTAGACGCGTAATCCGCCGGAGTCACCTAGTGCAG”, for which the binding signal is 8660 fluorescence intensity (a.u.). With “GATGACCAGATGTTTTGCTTTTTTCCTCGTATTTTTCTAGCGGAGTCACCTAGTGCAG”, the binding signal was 8050 fluorescence intensity (a.u.). In the case of “GCACACAAGCAAGCGGCCTCATCTGTTTTATTGTTTTTCTCGGAGTCACCTAGTGCAG”, the binding signal was 9580 fluorescence intensity (a.u.).

For “CACAACTTTTCGTTTTTTATATTTGCACAAATTTTTTAATCGGAGTCACCTAGTGCAG”, the binding signal was 8650 fluorescence intensity (a.u.). With “CCGCTTCGTCTCTCTCTCTCTCTCGCTTTCCTCTCTTATACGGAGTCACCTAGTGCAG”, the binding signal was 12300 fluorescence intensity (a.u.). As for “ATTTTATTTTTTTTCCTTTTGTGCTCGACAGGGTTGTATTCGGAGTCACCTAGTGCAG”, the figure is 8630 fluorescence intensity (a.u.); as for “ACCTGTTAACCTGTGCAAGATGGTTGCTACTATACTACTGCGGAGTCACCTAGTGCAG”, 8870 fluorescence intensity (a.u.); as for “AGGGAATTTCCCGTTCTTGCGCTCCTGGATTTCTTGCCCACGGAGTCACCTAGTGCAG”, 9560 fluorescence intensity (a.u.). As for “GGTAGCAGAGGAACTCTTCTTGCTGTTGCTAATTCTGGGGCGGAGTCACCTAGTGCAG”, the binding signal was 10200 fluorescence intensity (a.u.). Take “CCAGAGCGCCGATTTTTTTTTTATTCCTTGTTTCCCGATTCGGAGTCACCTAGTGCAG”: the binding signal is 8840 fluorescence intensity (a.u.).

As for “TATTATTCGTCAGAAGTTTTGTCCAAGTTTCTTTGTTCTTCGGAGTCACCTAGTGCAG”, the binding signal was 9840 fluorescence intensity (a.u.). For “TGTCTGAATGCACTGATACACATCTACCCATAGTACTATACGGAGTCACCTAGTGCAG”, the binding signal was 8860 fluorescence intensity (a.u.).

Regarding “TCTTTCATATGTTCTTTATGTTTTTGACTCACGCGTATTACGGAGTCACCTAGTGCAG”, the binding signal is 10500 fluorescence intensity (a.u.). On to “GCCCGCCGCTCCACCCACCGCCGTCGCGTCGGCCGTCGCCCGGAGTCACCTAGTGCAG”, for which the binding signal was 8660 fluorescence intensity (a.u.). On to “CGTCTGCAGTTTTATTCCTTACCTCGTTGCTCGGAGGCAACGGAGTCACCTAGTGCAG”, for which the binding signal is 10900 fluorescence intensity (a.u.). As for “CTTCCTTGTCGTGCCGTGCGAGGTCCCCTTCCGTGAAGTACGGAGTCACCTAGTGCAG”, the binding signal is 9350 fluorescence intensity (a.u.). “CATACTGTTCCACTCGCCCTCGTTTTCTCCGCCACCGAGCCGGAGTCACCTAGTGCAG”: the binding signal was 8450 fluorescence intensity (a.u.). Take “AGAGGAGAGGAGGGTTCAGATGTGGTGGGTCTATATAGCGCGGAGTCACCTAGTGCAG”: the binding signal is 9610 fluorescence intensity (a.u.). “TGCACCATTTTGCCGTTTGTCATACTAGTAGCTCATTATTCGGAGTCACCTAGTGCAG”: the binding signal is 9480 fluorescence intensity (a.u.). As to “CTGTGGTGGACTTCATTGTGATATACCATGTTTGAGGGTTCGGAGTCACCTAGTGCAG”, the binding signal is 9770 fluorescence intensity (a.u.). For the sequence “CTCGGGCTGTTCTACTCCCCTTCGATGGCATCGTGGCTTCCGGAGTCACCTAGTGCAG”, the binding signal was 9470 fluorescence intensity (a.u.).

As to “CCAAGCGCTCAATTTTTTTACTTACCCCTCATCTCTTTTGCGGAGTCACCTAGTGCAG”, the binding signal was 8660 fluorescence intensity (a.u.). In the case of “TCTCTTTTTTTTTCACCATGACCTTATCTGCTATTTTATACGGAGTCACCTAGTGCAG”, the binding signal was 14700 fluorescence intensity (a.u.).

Source of the values: publication PMC7819943, “Rice protein-binding microarrays: a tool to detect cis-acting elements near promoter regions in rice”.
